Test results published in publication PMC4625724.
No constants are given. Whether binding was seen depends on the method and setting. In cells and extracts the contact can be indirect. Some results given as binding are weak or reduced against the parent protein; the word gives no strength.

Chains of the proteins cited; added tags and fusions are not shown.
UniProt P06428: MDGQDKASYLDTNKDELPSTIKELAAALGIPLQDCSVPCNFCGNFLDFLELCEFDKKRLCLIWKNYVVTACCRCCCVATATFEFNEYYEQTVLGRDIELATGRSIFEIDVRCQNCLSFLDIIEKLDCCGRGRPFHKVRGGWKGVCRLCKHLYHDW
UniProt Q92585: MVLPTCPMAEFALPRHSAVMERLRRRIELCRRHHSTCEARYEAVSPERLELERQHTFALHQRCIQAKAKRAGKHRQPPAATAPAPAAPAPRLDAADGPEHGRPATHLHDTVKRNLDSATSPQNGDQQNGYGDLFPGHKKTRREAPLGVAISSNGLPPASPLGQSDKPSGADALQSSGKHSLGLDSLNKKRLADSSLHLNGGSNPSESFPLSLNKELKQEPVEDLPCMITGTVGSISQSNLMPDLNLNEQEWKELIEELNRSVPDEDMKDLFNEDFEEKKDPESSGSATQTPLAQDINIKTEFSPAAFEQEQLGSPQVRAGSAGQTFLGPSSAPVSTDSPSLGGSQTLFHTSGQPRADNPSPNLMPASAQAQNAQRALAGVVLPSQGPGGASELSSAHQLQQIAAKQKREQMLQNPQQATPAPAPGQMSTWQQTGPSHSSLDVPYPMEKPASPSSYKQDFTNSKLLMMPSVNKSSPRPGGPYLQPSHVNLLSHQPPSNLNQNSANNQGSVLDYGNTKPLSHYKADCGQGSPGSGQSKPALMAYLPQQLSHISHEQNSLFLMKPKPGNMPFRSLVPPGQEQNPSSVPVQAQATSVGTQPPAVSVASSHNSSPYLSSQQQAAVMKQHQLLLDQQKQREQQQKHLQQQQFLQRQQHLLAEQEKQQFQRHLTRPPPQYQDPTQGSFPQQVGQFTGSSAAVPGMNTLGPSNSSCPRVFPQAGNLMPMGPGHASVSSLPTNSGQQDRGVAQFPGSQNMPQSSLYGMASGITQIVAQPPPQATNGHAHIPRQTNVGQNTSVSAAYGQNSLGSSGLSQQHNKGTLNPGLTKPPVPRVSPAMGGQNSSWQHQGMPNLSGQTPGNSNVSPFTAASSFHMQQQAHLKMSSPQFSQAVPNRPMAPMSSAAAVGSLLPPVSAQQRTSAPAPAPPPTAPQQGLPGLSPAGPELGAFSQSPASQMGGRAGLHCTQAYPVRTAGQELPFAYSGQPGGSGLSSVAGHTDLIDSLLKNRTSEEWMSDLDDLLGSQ
UniProt Q09472: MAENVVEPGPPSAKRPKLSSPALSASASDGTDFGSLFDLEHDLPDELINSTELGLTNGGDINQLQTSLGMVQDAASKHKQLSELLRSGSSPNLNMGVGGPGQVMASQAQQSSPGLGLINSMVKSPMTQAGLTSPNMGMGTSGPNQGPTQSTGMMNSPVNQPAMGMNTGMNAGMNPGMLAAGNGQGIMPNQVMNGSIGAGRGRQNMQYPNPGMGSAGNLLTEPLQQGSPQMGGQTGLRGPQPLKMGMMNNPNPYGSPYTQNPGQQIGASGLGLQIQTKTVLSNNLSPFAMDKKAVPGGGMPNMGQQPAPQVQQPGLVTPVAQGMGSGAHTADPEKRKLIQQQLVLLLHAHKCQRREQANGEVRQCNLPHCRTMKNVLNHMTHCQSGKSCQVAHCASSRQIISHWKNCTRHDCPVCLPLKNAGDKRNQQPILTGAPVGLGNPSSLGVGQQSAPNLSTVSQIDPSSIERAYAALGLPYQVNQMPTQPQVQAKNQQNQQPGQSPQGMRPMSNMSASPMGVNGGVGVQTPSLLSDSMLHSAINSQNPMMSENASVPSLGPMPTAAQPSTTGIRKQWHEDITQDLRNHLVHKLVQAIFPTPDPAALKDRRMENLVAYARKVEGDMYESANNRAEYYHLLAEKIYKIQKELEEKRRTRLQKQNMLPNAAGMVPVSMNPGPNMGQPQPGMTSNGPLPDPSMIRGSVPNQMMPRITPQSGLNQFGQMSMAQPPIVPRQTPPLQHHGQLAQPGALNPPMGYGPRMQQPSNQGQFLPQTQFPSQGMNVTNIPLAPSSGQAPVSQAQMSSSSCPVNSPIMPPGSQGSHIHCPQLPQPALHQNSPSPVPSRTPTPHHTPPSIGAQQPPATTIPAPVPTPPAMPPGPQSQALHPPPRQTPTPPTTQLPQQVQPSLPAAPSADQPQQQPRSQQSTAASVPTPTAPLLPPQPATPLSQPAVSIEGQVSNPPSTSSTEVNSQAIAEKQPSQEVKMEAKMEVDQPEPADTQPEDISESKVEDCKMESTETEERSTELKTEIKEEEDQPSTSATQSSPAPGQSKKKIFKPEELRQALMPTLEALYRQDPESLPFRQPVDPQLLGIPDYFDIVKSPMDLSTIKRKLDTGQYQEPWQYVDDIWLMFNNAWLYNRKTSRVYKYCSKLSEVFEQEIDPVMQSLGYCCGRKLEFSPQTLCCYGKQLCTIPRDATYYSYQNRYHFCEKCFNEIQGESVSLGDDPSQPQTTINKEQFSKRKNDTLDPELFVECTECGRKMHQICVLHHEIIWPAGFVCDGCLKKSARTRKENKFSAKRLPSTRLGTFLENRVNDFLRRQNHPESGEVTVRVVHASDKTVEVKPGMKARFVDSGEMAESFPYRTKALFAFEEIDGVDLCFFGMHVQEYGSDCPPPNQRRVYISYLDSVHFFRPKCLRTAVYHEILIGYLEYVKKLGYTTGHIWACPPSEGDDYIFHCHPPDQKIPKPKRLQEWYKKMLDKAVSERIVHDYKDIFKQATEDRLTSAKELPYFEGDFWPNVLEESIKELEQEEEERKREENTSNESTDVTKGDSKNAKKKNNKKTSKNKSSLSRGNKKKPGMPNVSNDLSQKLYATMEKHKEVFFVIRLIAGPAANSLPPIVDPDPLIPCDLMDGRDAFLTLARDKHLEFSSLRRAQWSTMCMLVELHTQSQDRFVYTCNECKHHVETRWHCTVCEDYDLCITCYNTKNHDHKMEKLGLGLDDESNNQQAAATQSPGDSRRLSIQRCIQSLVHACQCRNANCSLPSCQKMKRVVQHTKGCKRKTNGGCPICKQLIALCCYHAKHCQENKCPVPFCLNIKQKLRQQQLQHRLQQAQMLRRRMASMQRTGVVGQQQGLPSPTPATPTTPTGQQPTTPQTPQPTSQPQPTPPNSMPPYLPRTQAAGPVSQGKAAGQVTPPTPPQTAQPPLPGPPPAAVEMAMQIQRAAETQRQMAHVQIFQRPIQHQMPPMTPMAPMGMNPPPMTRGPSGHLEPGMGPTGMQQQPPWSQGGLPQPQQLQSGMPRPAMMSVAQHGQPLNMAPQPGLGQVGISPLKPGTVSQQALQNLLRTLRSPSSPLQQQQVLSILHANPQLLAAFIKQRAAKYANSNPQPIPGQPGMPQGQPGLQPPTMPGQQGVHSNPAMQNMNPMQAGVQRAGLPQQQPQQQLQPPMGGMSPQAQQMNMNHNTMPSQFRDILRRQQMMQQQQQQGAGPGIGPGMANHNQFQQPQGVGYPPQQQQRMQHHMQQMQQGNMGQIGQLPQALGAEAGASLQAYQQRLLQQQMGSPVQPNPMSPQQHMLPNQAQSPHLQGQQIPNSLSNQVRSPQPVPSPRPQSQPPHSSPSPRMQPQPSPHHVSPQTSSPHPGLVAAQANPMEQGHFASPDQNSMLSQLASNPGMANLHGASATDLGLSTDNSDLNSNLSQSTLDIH
UniProt P84022: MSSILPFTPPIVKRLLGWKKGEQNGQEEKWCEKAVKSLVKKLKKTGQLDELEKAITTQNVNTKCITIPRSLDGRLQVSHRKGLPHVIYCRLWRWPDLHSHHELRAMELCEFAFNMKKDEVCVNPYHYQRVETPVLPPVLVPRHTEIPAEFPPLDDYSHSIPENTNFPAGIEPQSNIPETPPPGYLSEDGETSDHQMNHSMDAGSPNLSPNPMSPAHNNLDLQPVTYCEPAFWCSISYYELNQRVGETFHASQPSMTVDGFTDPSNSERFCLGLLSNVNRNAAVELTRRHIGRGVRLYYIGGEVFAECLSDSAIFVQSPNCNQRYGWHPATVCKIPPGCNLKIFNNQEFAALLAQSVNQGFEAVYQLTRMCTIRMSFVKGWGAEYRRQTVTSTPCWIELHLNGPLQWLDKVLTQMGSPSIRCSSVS

Biological target: Flag-HPV8-E6wt (human papillomavirus 8 (HPV8)) (UniProt P06428)
Assay: co-IP; extracts of transiently transfected RTS3b cells in 100 mM LSDB buffer (100 mM KCl, 50 mM Tris-HCl, 20 % glycerol, 0.1 % NP-40, 1 mM DTT) incubated with FLAG-M2 agarose 2 h at 4 °C, three washes with LSDB containing different KCl concentrations; Western blot of endogenous p300, MAML1, SMAD3

Substance	binding
MAML1 (from UniProt Q92585 1-1016)	binds
p300 (from UniProt Q09472 1-2414)	binds
SMAD3 (from UniProt P84022 1-425)	binds
